Measured data: PubChem BioAssay AID1259308 (NCATS, 2017)
Aim: 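Knock-downs that increase output of a recombinant reporter protein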 (primary screen). Cell system: human HEK293 embryonic kidney cells stably expressing firefly luciferase (HEK-CMV-Luc2-Hygro). Knock-down reagent: single siRNA against human genes, 0.8 pmol siRNA per well. Time to read-out: 72 h. Read-out: 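Reporter luminescence and viable-cell signal on separate replicate plates, given as percent of non-targeting control and median/MAD z-scores, plus per-cell luciferase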. Reading the numbers: total luciferase, z-score and total luciferase, % of control: higher = more reporter protein produced; luciferase per cell, z-score: higher = more reporter output per viable cell; viable cells, % of control: higher = more viable cells. Hit rule: 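Active when the median/MAD z-score for overall luciferase is greater than 3; a gene was taken forward for validation with new siRNAs if at least two of its three siRNAs passed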. Meaning of the calls: active = raised luciferase; inactive = no rise.
Shown is a random part of about 59,000 reagents. About 1,510 of all reagents (2.6%) were called active. 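Calls use total luciferase alone and ignore viability, so some active siRNAs may act by altering cell number.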 Unmarked entries are inactive. Reagents against one gene are numbered here. Reagent sequences are not shown.

Gene | reagent | total luciferase, z-score | total luciferase, % of control | luciferase per cell, z-score | viable cells, % of control
ZMAT4 (zinc finger matrin-type 4) | 1 | -0.586 | 70.2 | -0.276 | 84.4
ZMAT4 (zinc finger matrin-type 4) | 2 | 0.864 | 99.1 | 0.349 | 101
ZMAT4 (zinc finger matrin-type 4) | 3 | -0.821 | 65.6 | -1.17 | 99.6
REG3G (regenerating family member 3 gamma) | 1 | 0.899 | 99.8 | 0.63 | 94.4
REG3G (regenerating family member 3 gamma) | 2 | 0.885 | 99.5 | 0.54 | 96.4
REG3G (regenerating family member 3 gamma) | 3 | 0.437 | 90.6 | 2.14 | 57.6
TEX55 (testis expressed 55) | 1 | 0.678 | 95.4 | 0.564 | 91.9
TEX55 (testis expressed 55) | 2 | 1.35 | 109 | 0.605 | 104
TEX55 (testis expressed 55) | 3 | -0.0862 | 80.2 | 0.25 | 83.9
ARFGAP1 (ARF GTPase activating protein 1) | 1 | 0.0744 | 83.4 | -0.537 | 107
ARFGAP1 (ARF GTPase activating protein 1) | 2 | 1.04 | 103 | 0.388 | 103
ARFGAP1 (ARF GTPase activating protein 1) | 3 | 3.84 (active) | 158 | 2.16 | 100
ZMAT3 (zinc finger matrin-type 3) | 1 | 1.35 | 109 | 1.32 | 85.8
ZMAT3 (zinc finger matrin-type 3) | 2 | -1.38 | 54.4 | -1.72 | 95.6
ZMAT3 (zinc finger matrin-type 3) | 3 | -0.782 | 66.3 | -0.619 | 87.3
ALPK2 (alpha kinase 2) | 1 | 0.323 | 88.3 | 0.478 | 87
ALPK2 (alpha kinase 2) | 2 | -1.08 | 60.4 | -1.27 | 94.4
ALPK2 (alpha kinase 2) | 3 | -0.0271 | 81.3 | -1.02 | 119
PRDX6 (peroxiredoxin 6) | 1 | 1.1 | 104 | 0.802 | 93.9
PRDX6 (peroxiredoxin 6) | 2 | 0.617 | 94.1 | 0.792 | 85.4
PRDX6 (peroxiredoxin 6) | 3 | 0.436 | 90.6 | -0.0317 | 102
IL18BP (interleukin 18 binding protein) | 1 | 3.67 (active) | 155 | 2.06 | 101
IL18BP (interleukin 18 binding protein) | 2 | 1.58 | 113 | 2.28 | 69.4
IL18BP (interleukin 18 binding protein) | 3 | -0.682 | 68.3 | -0.735 | 92.6
SULT1C4 (sulfotransferase family 1C member 4) | 1 | 1.2 | 106 | 0.714 | 98
SULT1C4 (sulfotransferase family 1C member 4) | 2 | -1.25 | 57 | -1.15 | 86.2
SULT1C4 (sulfotransferase family 1C member 4) | 3 | 1.77 | 117 | 1.93 | 78.8
TCF19 (transcription factor 19) | 1 | 0.458 | 91 | 0.41 | 91.3
TCF19 (transcription factor 19) | 2 | -0.728 | 67.4 | 0.027 | 74.8
TCF19 (transcription factor 19) | 3 | 1.44 | 110 | 1.12 | 92
RNF168 (ring finger protein 168) | 1 | -1.11 | 59.9 | -1.12 | 89.8
RNF168 (ring finger protein 168) | 2 | 0.614 | 94.1 | -0.19 | 111
RNF168 (ring finger protein 168) | 3 | -0.829 | 65.4 | 0.305 | 67.4
N4BP3 (NEDD4 binding protein 3) | 1 | 1.96 | 121 | 0.637 | 114
N4BP3 (NEDD4 binding protein 3) | 2 | 0.598 | 93.8 | 1.3 | 74.5
N4BP3 (NEDD4 binding protein 3) | 3 | 1.47 | 111 | 1.44 | 85
FAM168A (family with sequence similarity 168 member A) | 1 | 0.219 | 86.2 | 0.0439 | 95.3
FAM168A (family with sequence similarity 168 member A) | 2 | 1.78 | 117 | 1.5 | 88.2
FAM168A (family with sequence similarity 168 member A) | 3 | 1.18 | 105 | 0.508 | 103
KLHL42 (kelch like family member 42) | 1 | -1.95 | 43.1 | -1.93 | 80
KLHL42 (kelch like family member 42) | 2 | -0.537 | 71.2 | 0.237 | 74.8
KLHL42 (kelch like family member 42) | 3 | -0.259 | 76.7 | 0.341 | 78.4
BLZF1 (basic leucine zipper nuclear factor 1) | 1 | -0.0574 | 80.7 | 0.0171 | 89.8
BLZF1 (basic leucine zipper nuclear factor 1) | 2 | -1.21 | 57.8 | -0.148 | 67.2
BLZF1 (basic leucine zipper nuclear factor 1) | 3 | 0.0277 | 82.4 | 0.359 | 83.8
ABHD11 (abhydrolase domain containing 11) | 1 | 0.688 | 95.6 | 0.791 | 86.7
ABHD11 (abhydrolase domain containing 11) | 2 | -0.195 | 78 | 0.179 | 83.2
ABHD11 (abhydrolase domain containing 11) | 3 | -2.87 | 24.8 | -2.78 | 57.7
ZBTB26 (zinc finger and BTB domain containing 26) | 1 | 0.0963 | 83.8 | 0.355 | 85.3
ZBTB26 (zinc finger and BTB domain containing 26) | 2 | -0.115 | 79.6 | 0.328 | 81.6
ZBTB26 (zinc finger and BTB domain containing 26) | 3 | 1.37 | 109 | 1.36 | 85.3
BANF1 (barrier to autointegration nuclear assembly factor 1) | 1 | -0.0841 | 80.2 | 0.104 | 87.2
BANF1 (barrier to autointegration nuclear assembly factor 1) | 2 | 0.208 | 86 | 0.0585 | 94.7
BANF1 (barrier to autointegration nuclear assembly factor 1) | 3 | -0.398 | 74 | -0.0712 | 84.2
DISP1 (dispatched RND transporter family member 1) | 1 | -0.34 | 75.1 | -0.495 | 95.6
DISP1 (dispatched RND transporter family member 1) | 2 | 0.535 | 92.5 | -0.0314 | 104
DISP1 (dispatched RND transporter family member 1) | 3 | -0.412 | 73.7 | -0.506 | 94.1
